We go through 38 compounds from PubChem BioAssay AID2685 (National Center for Advancing Translational Sciences (NCATS), 2010).

The list shows a part of the results. These are further read-outs of the screen, such as a control signal, another cell line or another target. No call is given for them. The list favours compounds with an active or inconclusive main result. The note in brackets gives the kind of curve behind each potency; many fits are weak.

This assay is described as follows: qHTS Assay for Lipid Storage Modulators in Drosophila S3 Cells.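 On cell number change: cells counted by Cell Tracker Red CMTPX staining in the red channel.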 The settings on record: BODIPY lipid droplet fluorescence, 18-24 h; for cell number change: measured here: cell count max response, cells fed with added oleic acid. Put shortly:
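Drosophila S3 cells loaded with oleic acid (400 uM, as added) and compounds at several concentrations; lipid droplets imaged by 488-nm laser-scanning cytometry, 500–530 nm intensity and object ratio to cell channel. Percent activity normalized to 20 uM Triacsin C.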
(qHTS replaces the single test concentration by a dilution series.)

The mark [1] stands for this setting: measured here: cell number channel AC50, cells fed with added oleic acid.
[2] abbreviates: measured here: lipid fluorescence (Fed channel) AC50, cells fed with added oleic acid.

On to `COc1ccccc1CC(=O)Nc1c[nH]c(=O)[nH]c1=O`, for which the cell number change was -32.6%. Moreover, the AC50 (as a rule, the midpoint of the concentration-response curve, whichever way the signal moves) under setting [1] was 0.82 µM [falling, full curve]. Moreover, under setting [2], the half-maximal activity concentration (AC50) was 0.146 µM [falling, full curve, poor fit].
Take `CCOC(=O)c1cccc(Nc2nc(-c3cccnc3)nc3ccccc23)c1`: the cell number change was -51.1%. Besides, the AC50 under setting [1] is 29.1 µM [falling, single point]. For the same compound, under setting [2], the AC50 was 29.1 µM [falling, partial curve, poor fit].
With `O=C(c1cccs1)N1CCN=C1SCc1cccc(F)c1`, under setting [1], the concentration at half-maximal activity (AC50) is 0.411 µM [rising, partial curve].
As to `C=CCOc1ccccc1C(=O)/C=C1/C(=O)Nc2ccccc21`, the cell number change is -72.7%. Moreover, the concentration at half-maximal activity (AC50) under setting [1] is 16.4 µM [falling, single point].
Regarding `Cc1ccccc1C(=O)Nc1cccc(NC(=O)c2ccc(F)cc2)c1`, the cell number change was found to be 22.7%. Under setting [2], the concentration at half-maximal activity (AC50) is 29.1 µM [rising, single point].
With `COc1cccc(/C=C/C(=O)OCC(=O)c2c(N)n(C)c(=O)n(C)c2=O)c1`, the cell number change is -1.61%. The AC50 under setting [2] was 29.1 µM [falling, single point].
Take `CCCC(=O)NC(c1ccco1)c1c(O)ccc2ccccc12` (stereo unspecified): under setting [2], the AC50 is 0.58 µM [falling, single point].
For the compound `Cc1nnc(NC(=O)c2ccc3ccccc3c2)s1`, the cell number change was determined as 16.6%.
On to `COc1ccc(OC(C)C(=O)Nc2cccnc2)cc1` (stereo unspecified), for which the cell number change was -35.8%. Under setting [1], the AC50 is 7.31 µM [falling, partial curve]. The AC50 under setting [2] was 6.51 µM [falling, single point].
Regarding `Clc1ccccc1-c1nc(N/N=C/c2cccnc2)c2ccccc2n1`, the cell number change worked out at 42.1%. The AC50 under setting [1] was 32.6 µM [rising, single point].
`CCCn1nnnc1NCc1ccc(SC)cc1`: the cell number change came to 8.8%. Further, the half-maximal activity concentration (AC50) under setting [1] was 0.082 µM [rising, full curve, poor fit].
`Cc1cc(=O)oc(C)c1C(=O)OCC(=O)c1ccc(Cl)c(Cl)c1`: the cell number change is -2.43%. Moreover, the AC50 under setting [1] was 0.0517 µM [falling, full curve, poor fit]. Also, the AC50 under setting [2] was 23.1 µM [falling, partial curve].
`CCCN(CCC)C(=S)NC1CC2C=CC1C2` (stereo unspecified): the cell number change is -1.49%. In addition, the half-maximal activity concentration (AC50) under setting [1] is 3.66 µM [falling, single point].
As for `CCCCN(CCCNC(=O)C1CCN(S(=O)(=O)N2CCOCC2)CC1)c1ccccc1`, the cell number change is -31.4%. The half-maximal activity concentration (AC50) under setting [1] is 32.6 µM [falling, partial curve, poor fit]. The AC50 under setting [2] is 29.1 µM [falling, single point].
For the compound `COc1cc(C2NC(=S)NC(O)(C(F)(F)F)C2C(=O)c2cccs2)cc(OC)c1O` (stereo unspecified), the cell number change came to 38.7%. The half-maximal activity concentration (AC50) under setting [1] was 29.1 µM [rising, single point]. The AC50 under setting [2] was 29.1 µM [rising, single point].
As for `CCOC(=O)COc1ccc(C(=O)Nc2cccc(Cl)c2C)cc1`, the cell number change was -9.01%. Moreover, the AC50 under setting [1] is 0.517 µM [falling, single point]. Besides, the AC50 under setting [2] is 0.461 µM [falling, single point].
Turning to `COc1ccc(CNS(=O)(=O)c2c(C(=O)N3CCCCCC3)c(C)n(C)c2C)cc1`, the cell number change was -4.89%. In addition, under setting [2], the half-maximal activity concentration (AC50) is 0.0164 µM [rising, full curve, poor fit].
`Cc1ccc([C@@H]2[C@@H]3C(=O)N(c4ccccc4)C(=O)[C@@H]3[C@]3(C)C(=O)N(CC4CC4)CC(=O)N23)o1`: the cell number change worked out at 14.7%. Moreover, the AC50 under setting [2] is 1.84 µM [rising, partial curve].
Regarding `CCc1ccc(CN(C)Cc2nc(-c3cccc(Cl)c3)no2)nc1`, the cell number change is -13.2%. For the same compound, under setting [2], the AC50 is 0.00461 µM [falling, full curve, poor fit].
Take `CCSc1nc(-c2ccc(OC)cc2)ccc1C#N`: under setting [2], the AC50 is 5.17 µM [rising, full curve].
Turning to `CCn1c(SCc2ccc(C(=O)O)cc2)nnc1-c1ccc(Cl)cc1`, the cell number change was -8.64%. The AC50 under setting [2] was 23.1 µM [falling, single point].
In the case of `COCCNC(=O)c1cc(-c2ccccc2)n(CC2CC(c3ccc(OC)cc3)=NO2)n1` (stereo unspecified), the cell number change was -13.6%. Further, the AC50 under setting [2] was 0.13 µM [falling, full curve, poor fit].
Take `COc1ccc2oc(C(=O)OCC(=O)N(Cc3ccccc3)C(C)C)c(C)c2c1`: the cell number change is -19.8%.
On the same count and under the same terms, as for `CCN(CC)S(=O)(=O)c1ccc(C(C)NCC(=O)Nc2ccccc2C(=O)NC2CC2)cc1` (stereo unspecified), the figure is -6.73%.
As to `COc1ccc2c(c1)CCc1c-2n[nH]c1C(=O)NCCC(C)C`, the cell number change is -31.8%. In addition, the half-maximal activity concentration (AC50) under setting [1] is 29.1 µM [falling, single point]. In addition, the concentration at half-maximal activity (AC50) under setting [2] was 29.1 µM [falling, single point].
Consider `NS(=O)(=O)c1ccc(NS(=O)(=O)c2cccs2)cc1`, for which the cell number change is -0.859%. For the same compound, the concentration at half-maximal activity (AC50) under setting [2] was 29.1 µM [falling, single point].
For `O=C(CN1C(=O)c2ccccc2S1(=O)=O)NC1CC2CCC1C2` (stereo unspecified), the cell number change was -15.7%.
Take `COc1ccc(C)c(NC(=O)NCCc2cnc[nH]2)c1`: the cell number change worked out at 4.76%.
As for `N#Cc1c(SCC(N)=O)nc2c(c1-c1ccc(O)cc1)CCCC2`, the cell number change amounted to 25%. Besides, the AC50 under setting [1] was 0.411 µM [rising, full curve, poor fit]. The AC50 under setting [2] was 2.31 µM [rising, partial curve].
As to `O=c1cc(Nc2cccc(Br)c2)[nH]c(=O)[nH]1`, the cell number change turned out to be 6.73%. Also, the AC50 under setting [2] is 4.11 µM [falling, partial curve, poor fit].
Turning to `COCC(C)NC(=O)NC(=O)c1ccc(Cl)cc1` (stereo unspecified), the cell number change turned out to be 22%. The AC50 under setting [2] is 2.59 µM [falling, single point].
Consider `Cc1ccc(-n2nnnc2CN2CCCCC2)cc1`, for which the cell number change was -7.56%. The AC50 under setting [2] is 0.13 µM [falling, full curve, poor fit].
`COc1cccc(NC(=S)NCCc2ccccn2)c1`: the cell number change was -38.3%.
In the case of `O=C(NCCc1ccc(Cl)cc1)c1ccc(=O)[nH]c1`, the cell number change is 1.8%. The concentration at half-maximal activity (AC50) under setting [2] is 3.66 µM [rising, partial curve, poor fit].
With `Cc1ccc(S(=O)(=O)N(Cc2cccnc2)Cc2cc3ccccc3[nH]c2=O)cc1`, the cell number change is 21.1%.
Consider `CN1CCN(C(=O)C2=C[C@H](c3csc4ccccc34)C[C@H](OCCCCO)O2)CC1`, for which the cell number change stood at 2.11%. Also, the AC50 under setting [2] was 1.64 µM [rising, partial curve, poor fit].
Take `COc1cc(C(=O)NCCC(=O)NC2CCCCCCC2)cc(OC)c1OC`: the cell number change is -37.4%. Besides, under setting [1], the AC50 is 0.58 µM [falling, partial curve, poor fit]. Besides, under setting [2], the concentration at half-maximal activity (AC50) was 0.651 µM [falling, single point].
On to `CCOc1ccc(/C=N/Nc2cc(N3CCOCC3)nc(C)n2)c(O)c1`, for which the cell number change came out at 0.824%. The concentration at half-maximal activity (AC50) under setting [2] is 23.1 µM [rising, single point].
